Test results as given in US9781933B2, “Tetrazolinone compound and use thereof” (Sumitomo Chemical Company, Limited, priority 2013, dated 2017).
Some entries share one result that the patent states for a list of compounds. At least one compound was matched to its structure with a doubt left.

Key:
[1] = system: rice blast fungus (Magnaporthe grisea); type: in vivo; details: 500 ppm foliar spray; rice (NIHONBARE); 6 days in contact with infected seedling
[2] = system: wheat rust fungus (Puccinia recondita); experiment: Test Example 2: wheat rust control, foliar spray; type: in vivo; details: 500 ppm foliar spray; wheat (SHIROGANE); inoculated 5 days after spraying

| SMILES | lesion area with respect to the lesion area on the non-treated plant [1] [%] | area of lesion relative to that on an untreated plant [2] [%] |
| --- | --- | --- |
| COc1nc2ccccc2cc1-n1ccc(OCc2c(C)cccc2-n2nnn(C)c2=O)n1 [compound 4] | ≤ 30 |  |
| COc1nc(C)ccc1-n1ccc(OCc2c(C)cccc2-n2nnn(C)c2=O)n1 [compound 5] | ≤ 30 | ≤ 30 |
| Cc1cccc(-n2nnn(C)c2=O)c1COc1ccn(-c2cccc3c2OCC3)n1 [compound 26] |  | ≤ 30 |
| Cc1cccc(-n2nnn(C)c2=O)c1COc1ccn(-c2ccc(Cl)cn2)n1 [compound 28] |  | ≤ 30 |
| Cc1cccc(-n2nnn(C)c2=O)c1COc1ccn(-c2ncccn2)n1 [compound 30] | ≤ 30 | ≤ 30 |
| Cc1cccc(-n2nnn(C)c2=O)c1COc1ccn(-c2ccc(F)cn2)n1 [compound 40] |  | ≤ 30 |
| Cc1cccc(-n2nnn(C)c2=O)c1COc1ccn(-c2ccc(Br)cn2)n1 [compound 42] | ≤ 30 | ≤ 30 |
| Cc1cccc(-n2nnn(C)c2=O)c1COc1ccn(-c2ccc(C#N)cn2)n1 [compound 47] | ≤ 30 | ≤ 30 |
| Cc1cccc(-n2nnn(C)c2=O)c1COc1ccn(-c2nc3ccccc3s2)n1 [compound 48] | ≤ 30 | ≤ 30 |
| Cc1cccc(-n2nnn(C)c2=O)c1COc1ccn(-c2cnc(C(F)(F)F)cn2)n1 [compound 51] | ≤ 30 |  |
| Cc1cccc(-n2nnn(C)c2=O)c1COc1ccn(-c2ncc(Cl)s2)n1 [compound 54] | ≤ 30 |  |
| Cc1cccc(-n2nnn(C)c2=O)c1COc1ccn(-c2cnc3ccccc3n2)n1 [compound 55] | ≤ 30 |  |
| Cc1cccc(-n2nnn(C)c2=O)c1COc1ccn(-c2ccc3ccccc3n2)n1 [compound 58] | ≤ 30 | ≤ 30 |
